We go through one compound from patent US6503727B1, “Process for the preparation of an antibiotic” (Gist-Brocades, B.V., priority 1995, dated 2003).

This data set can be described thus: Effect of PGA and CEX on the solubility of 7-ADCA (dissolved concentrations in synthetic mixtures). The note with it: final pH 4.5, 2 hours, 20° C.

Each structure is given as a SMILES string.

For `CC1=C(C(=O)O)N2C(=O)[C@@H](NC(=O)[C@H](N)c3ccccc3)[C@H]2SC1` [CEX, cephalexin, reference compound], the Dissolved concentrations (Example I Mixture 4: 3% (m/m) 7-ADCA, 0.4% (m/m) PC, 1.5% (m/m) PGA and 3.0% (m/m) CEX.H2O in water) was 2.0 % (m/m); the Dissolved concentrations (Example I Mixture 5: 3% (m/m) 7-ADCA and 3.0% (m/m) CEX.H2O in water) is 2.0 % (m/m).
